This passage reports binding results from patent publication USRE47123.

Protein sequences, listed by entry. Tags and fused reporters are not part of them. Residues count along the entry.
UniProt D3ZBN3, residues 23-977: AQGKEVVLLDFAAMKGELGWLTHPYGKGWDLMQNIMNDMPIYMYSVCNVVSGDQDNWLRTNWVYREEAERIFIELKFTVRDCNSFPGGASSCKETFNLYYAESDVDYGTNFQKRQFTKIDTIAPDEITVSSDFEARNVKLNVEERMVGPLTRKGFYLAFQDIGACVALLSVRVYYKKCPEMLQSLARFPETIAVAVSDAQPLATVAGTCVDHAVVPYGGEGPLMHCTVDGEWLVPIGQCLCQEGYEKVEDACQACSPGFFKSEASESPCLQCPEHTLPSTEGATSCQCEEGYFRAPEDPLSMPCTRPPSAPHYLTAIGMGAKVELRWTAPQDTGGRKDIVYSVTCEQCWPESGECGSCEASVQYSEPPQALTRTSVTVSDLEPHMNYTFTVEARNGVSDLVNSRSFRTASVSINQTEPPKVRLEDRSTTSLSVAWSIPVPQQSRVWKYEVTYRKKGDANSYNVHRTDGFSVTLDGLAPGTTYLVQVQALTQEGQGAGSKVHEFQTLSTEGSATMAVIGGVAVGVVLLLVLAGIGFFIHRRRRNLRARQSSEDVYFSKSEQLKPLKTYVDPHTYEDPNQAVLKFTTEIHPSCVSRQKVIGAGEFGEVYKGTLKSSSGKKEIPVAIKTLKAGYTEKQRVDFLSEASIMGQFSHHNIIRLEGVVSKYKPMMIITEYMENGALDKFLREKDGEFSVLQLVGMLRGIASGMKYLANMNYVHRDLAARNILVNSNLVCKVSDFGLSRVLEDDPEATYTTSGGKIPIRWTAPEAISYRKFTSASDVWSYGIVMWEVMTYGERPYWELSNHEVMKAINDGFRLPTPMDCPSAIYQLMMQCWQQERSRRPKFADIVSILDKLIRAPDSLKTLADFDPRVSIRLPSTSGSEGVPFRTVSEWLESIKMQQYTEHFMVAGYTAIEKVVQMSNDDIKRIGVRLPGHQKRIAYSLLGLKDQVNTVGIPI

Results are given in words; binding and its absence hold for the method and conditions named. Some binding calls cover weakened binding; strength is not graded here.

For test [1], the target named is rat EphA2 receptor (rat) (UniProt D3ZBN3). The test can be described thus: FACS, cells over-expressing rat EphA2.
For test [2] the target is unchanged. The test can be described thus: FACS, 300-19/rat-EphA2 cells (FIG. 4B legend). For orientation: In flow cytometry, cells or beads pass a laser one at a time.

B1: murine anti-EphA2 monoclonal antibody 37.3D7 (antibody, V domains shown)
VH: QVQLQQPGSELVRPGASVQLSCKASGYSFTSYWMHWVRQRPGQGLQWIGNIYPGTGNTNYDEKFMNKATLTVDTYSSTTYMQLSSLTSEDSAVYYCARWGLVRYFFAMDYWGQGTSVTVSS
VL: QIVLTQSPAIMSASLGERVTMTCTVSSSVNSSYLHWYQQKPGSSPKLWIYSTSNLPSGVPARFSGSGSGTSYSLTISTIESEDAATYYCHQYHRSPQFTFGSGTKLEIKR
In the case of B1, the binding entry in the test with rat EphA2 receptor (rat) [1] and in the test with rat EphA2 receptor (rat) [2] was “binds” throughout.
